Results from article PMC7862700.
Some of the results follow. Construct or isoform of the protein are uncertain.

These sequences were tested against T1, ETV4 (UniProt P43268) (assay: DAPPL (digital affinity profiling via proximity ligation, sequencing)). Conditions: 10 mM Tris-HCl pH 7.5, 50 mM NaCl, 1 mM DTT, 4% glycerol, room temperature, 30 min; GST-TFs on glutathione beads, 16-mer random dsDNA library, 0.1% …; high values mean tight binding; double strand, one strand shown; scale: fold enrichment (6-mer frequency, TF over GST control).
T1 sequence: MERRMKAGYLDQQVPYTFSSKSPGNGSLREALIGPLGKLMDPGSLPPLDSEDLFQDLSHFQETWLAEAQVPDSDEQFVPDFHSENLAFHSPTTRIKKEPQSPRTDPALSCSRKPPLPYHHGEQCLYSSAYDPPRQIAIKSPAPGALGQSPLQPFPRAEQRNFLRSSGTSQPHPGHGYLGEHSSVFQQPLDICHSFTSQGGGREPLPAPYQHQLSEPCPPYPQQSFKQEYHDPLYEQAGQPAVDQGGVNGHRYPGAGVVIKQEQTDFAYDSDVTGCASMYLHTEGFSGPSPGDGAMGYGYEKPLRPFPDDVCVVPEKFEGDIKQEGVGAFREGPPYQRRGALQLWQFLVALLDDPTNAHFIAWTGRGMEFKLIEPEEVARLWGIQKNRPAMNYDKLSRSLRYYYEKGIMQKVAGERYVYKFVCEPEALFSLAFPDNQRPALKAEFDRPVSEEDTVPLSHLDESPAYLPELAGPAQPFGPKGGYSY
CAAAAC was tested, and the binding signal was 1.29.
For CTCCCG, the binding signal was 1.52.
TTCATA gave a binding signal of 1.12.
ACATAT was tested, and the binding signal was 1.34.
With TTATTG the binding signal was 1.28.
TGCGAT was tested, and the binding signal was 1.24.
TCGCAC gave a binding signal of 1.03.
ATCTTT showed a binding signal of 1.17.
Sequence TACACC has a binding signal of 1.29.
Sequence CTCTGT has a binding signal of 1.57.
TTATCA gave a binding signal of 1.1.
CTATAC was tested, and the binding signal was 1.37.
CTATGA showed a binding signal of 1.13.
TCATTC gave a binding signal of 1.23.
Sequence ATGATT has a binding signal of 1.24.
Sequence AACACA has a binding signal of 1.26.
Work on TACATT yielded a binding signal of 1.27.
Sequence TTCCCC has a binding signal of 1.62.
ATCATA gave a binding signal of 1.02.
CCTGAT showed a binding signal of 1.35.
Work on TCTCAA yielded a binding signal of 1.32.
For ACTACC, the binding signal was 1.55.
Work on CCAATC yielded a binding signal of 1.17.
Work on GTTAAC yielded a binding signal of 1.17.
With ATGATA the binding signal was 1.22.
For GAAGCT, the binding signal was 1.54.
With CATCTG the binding signal was 1.18.
TTCCTC gave a binding signal of 2.17.
Work on CGACTA yielded a binding signal of 1.39.
Work on TAAGGT yielded a binding signal of 1.06.
Sequence TAACAA has a binding signal of 1.21.
GGAACA gave a binding signal of 1.04.
ATTCTG showed a binding signal of 1.28.
GCTCTG gave a binding signal of 1.21.
With TATTTC the binding signal was 2.15.
Sequence CTCACT has a binding signal of 1.49.
Work on TATAAG yielded a binding signal of 1.11.
CTTAGA showed a binding signal of 1.1.
TGTAAA was tested, and the binding signal was 1.18.
